Data reported in publication doi:10.1101/2023.12.08.570815.
Results are given in words; binding and its absence hold for the method and conditions named. In cells and extracts the contact can be indirect. These calls come from enrichment with a bait or labelling near it, and not all partners need be listed. Where a sequence is shown, tags or fusion partners need not be part of it.

Columns and labels:
[1] = target: T1, HA-miniTurbo-tagged ULK1 (unc-51 like autophagy activating kinase 1) (UniProt O75385); assay: affinity purification with mass spectrometry
T1 sequence: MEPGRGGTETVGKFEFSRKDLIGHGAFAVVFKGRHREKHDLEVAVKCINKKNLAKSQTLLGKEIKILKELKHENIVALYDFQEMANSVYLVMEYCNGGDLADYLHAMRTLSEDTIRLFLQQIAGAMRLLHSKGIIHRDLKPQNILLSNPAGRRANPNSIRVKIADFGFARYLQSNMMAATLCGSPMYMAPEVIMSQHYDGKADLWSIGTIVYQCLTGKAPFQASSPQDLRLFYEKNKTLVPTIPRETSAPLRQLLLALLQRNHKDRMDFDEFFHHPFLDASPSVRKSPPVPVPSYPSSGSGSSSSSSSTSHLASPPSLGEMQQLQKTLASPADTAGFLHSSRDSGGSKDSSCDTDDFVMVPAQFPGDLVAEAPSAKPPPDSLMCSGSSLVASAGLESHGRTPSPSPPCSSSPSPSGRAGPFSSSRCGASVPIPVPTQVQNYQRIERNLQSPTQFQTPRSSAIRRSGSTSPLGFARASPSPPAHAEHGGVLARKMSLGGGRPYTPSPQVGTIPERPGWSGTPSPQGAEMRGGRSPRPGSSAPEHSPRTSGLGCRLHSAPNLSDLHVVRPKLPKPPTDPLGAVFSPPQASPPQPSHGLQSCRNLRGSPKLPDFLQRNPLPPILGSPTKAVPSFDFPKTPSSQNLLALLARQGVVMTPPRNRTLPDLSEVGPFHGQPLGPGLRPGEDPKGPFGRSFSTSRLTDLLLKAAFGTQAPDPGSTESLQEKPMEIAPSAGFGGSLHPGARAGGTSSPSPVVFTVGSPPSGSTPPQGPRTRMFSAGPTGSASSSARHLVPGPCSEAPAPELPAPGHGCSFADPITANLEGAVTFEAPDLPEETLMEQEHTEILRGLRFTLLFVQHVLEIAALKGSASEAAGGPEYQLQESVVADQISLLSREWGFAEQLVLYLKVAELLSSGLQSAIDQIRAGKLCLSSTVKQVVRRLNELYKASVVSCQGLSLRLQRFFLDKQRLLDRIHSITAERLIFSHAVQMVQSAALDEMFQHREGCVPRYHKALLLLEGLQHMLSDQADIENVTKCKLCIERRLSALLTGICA

[2] = target: T1, HA-miniTurbo-tagged ULK1 (unc-51 like autophagy activating kinase 1); assay: affinity purification with mass spectrometry + proximity labelling
[3] = target: T1, HA-miniTurbo-tagged ULK1 (unc-51 like autophagy activating kinase 1); assay: proximity labelling

binding [1]: binds | binding [2]: binds | binding [3]: binds
Substance: Bcl-2-associated athanogene 2 (BAG2), endogenous (from UniProt O95816 1-211)
